Laboratory results published in paper PMC11242413.
These are yes or no findings as the source states them, for the method shown.

Target: WW4 domain of a ubiquitin ligase WWP1 (UniProt Q9H0M0)
Test: NMR 15N CPMG relaxation dispersion; WW4 in the free state (no denaturant) at 2.0 mM, quick measurement; ΔR2eff values compared with those at the usual 250 µM; both purified

binding: no binding (tested: 2.0 mM)
Substance: WW4 domain of a ubiquitin ligase WWP1 (from UniProt Q9H0M0 494-532) (domain or fragment)
